Measurements from PMC6394608.
These are yes or no findings as the source states them, for the method shown. Binding seen in cells or lysates may run through a third protein. Some binding calls cover weakened binding; strength is not graded here.

Amino acid sequences for entries named in this document (tags omitted). A change or cut given only in a name is not applied to a line headed by its entry. Chains listed by the source or under a name are the forms on record and can include a tag or linker.
UniProt P00441: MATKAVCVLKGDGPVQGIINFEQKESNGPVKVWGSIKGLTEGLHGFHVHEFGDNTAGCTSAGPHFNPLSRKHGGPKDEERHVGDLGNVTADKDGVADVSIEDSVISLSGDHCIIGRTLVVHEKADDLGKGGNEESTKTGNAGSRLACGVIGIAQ
human SOD1 G93A expressed in transgenic mice (hSOD1^G93A) (P00441, form named): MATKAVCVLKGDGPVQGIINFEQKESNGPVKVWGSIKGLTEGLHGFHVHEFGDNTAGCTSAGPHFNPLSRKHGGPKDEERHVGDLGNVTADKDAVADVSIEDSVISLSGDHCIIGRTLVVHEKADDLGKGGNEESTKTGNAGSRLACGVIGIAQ
UniProt Q921F2: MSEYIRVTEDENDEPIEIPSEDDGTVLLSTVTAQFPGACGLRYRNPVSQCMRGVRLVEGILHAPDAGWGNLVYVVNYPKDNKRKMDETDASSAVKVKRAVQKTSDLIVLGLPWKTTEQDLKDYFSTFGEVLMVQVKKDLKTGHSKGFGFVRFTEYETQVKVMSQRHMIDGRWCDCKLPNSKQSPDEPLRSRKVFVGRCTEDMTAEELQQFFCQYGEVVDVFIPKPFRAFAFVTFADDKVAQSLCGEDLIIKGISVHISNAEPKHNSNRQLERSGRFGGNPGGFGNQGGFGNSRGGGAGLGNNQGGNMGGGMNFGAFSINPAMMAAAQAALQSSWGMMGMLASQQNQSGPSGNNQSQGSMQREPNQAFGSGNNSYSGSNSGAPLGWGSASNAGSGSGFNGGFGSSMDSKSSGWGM

Legend:
[1] = target: V5-tagged mutant human SOD1 (hSOD1 G93A) (human) (UniProt P00441); test: co-IP; lysates of NSC-34 cells transfected with V5-tagged WT or G93A SOD1; precipitated with V5 antibody at 4 °C for 6 h, protein A/G agarose beads; blot for V5 or TDP-43
[2] = target: human SOD1 G93A expressed in transgenic mice (hSOD1^G93A) (human) (UniProt P00441); test: co-IP; lumbar spinal cord of 120-day-old hSOD1 G93A and WT mice; precipitating antibody not told

TAR DNA-binding protein 43 (TDP-43) in NSC-34 cells (from UniProt Q921F2 1-414)
binding [1]: binds

TAR DNA-binding protein 43 (TDP-43) in mouse spinal cord (from UniProt Q921F2 1-414)
binding [2]: binds
